The values that follow come from article PMC12172431.

Sequences of proteins named here, by UniProt entry; tags and fusion partners are left off.
UniProt P16709: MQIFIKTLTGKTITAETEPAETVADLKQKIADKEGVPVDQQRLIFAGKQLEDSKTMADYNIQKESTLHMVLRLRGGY

Assay [1] has as its target T1, Ac51 (AcMNPV) (UniProt P41455).
T1 sequence: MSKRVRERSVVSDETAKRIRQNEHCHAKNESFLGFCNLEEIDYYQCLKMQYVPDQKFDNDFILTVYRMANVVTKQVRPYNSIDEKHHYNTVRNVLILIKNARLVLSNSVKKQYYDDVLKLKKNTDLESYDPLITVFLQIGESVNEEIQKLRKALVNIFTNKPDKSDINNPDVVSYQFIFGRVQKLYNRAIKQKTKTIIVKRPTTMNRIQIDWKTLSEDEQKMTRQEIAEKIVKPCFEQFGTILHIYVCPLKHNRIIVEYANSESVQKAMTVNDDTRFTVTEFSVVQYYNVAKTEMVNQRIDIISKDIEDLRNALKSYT
The experiment in a line: affinity purification with mass spectrometry; Sf9 cells infected with vAcWT (MOI 5), collected at 48 h p.i.; IP with anti-Ac51 antibody, IgG as control; LC-MS/MS.

Assay [2] addresses T2, Flag-tagged Ac66 (AcMNPV) (UniProt P41467).
T2 sequence: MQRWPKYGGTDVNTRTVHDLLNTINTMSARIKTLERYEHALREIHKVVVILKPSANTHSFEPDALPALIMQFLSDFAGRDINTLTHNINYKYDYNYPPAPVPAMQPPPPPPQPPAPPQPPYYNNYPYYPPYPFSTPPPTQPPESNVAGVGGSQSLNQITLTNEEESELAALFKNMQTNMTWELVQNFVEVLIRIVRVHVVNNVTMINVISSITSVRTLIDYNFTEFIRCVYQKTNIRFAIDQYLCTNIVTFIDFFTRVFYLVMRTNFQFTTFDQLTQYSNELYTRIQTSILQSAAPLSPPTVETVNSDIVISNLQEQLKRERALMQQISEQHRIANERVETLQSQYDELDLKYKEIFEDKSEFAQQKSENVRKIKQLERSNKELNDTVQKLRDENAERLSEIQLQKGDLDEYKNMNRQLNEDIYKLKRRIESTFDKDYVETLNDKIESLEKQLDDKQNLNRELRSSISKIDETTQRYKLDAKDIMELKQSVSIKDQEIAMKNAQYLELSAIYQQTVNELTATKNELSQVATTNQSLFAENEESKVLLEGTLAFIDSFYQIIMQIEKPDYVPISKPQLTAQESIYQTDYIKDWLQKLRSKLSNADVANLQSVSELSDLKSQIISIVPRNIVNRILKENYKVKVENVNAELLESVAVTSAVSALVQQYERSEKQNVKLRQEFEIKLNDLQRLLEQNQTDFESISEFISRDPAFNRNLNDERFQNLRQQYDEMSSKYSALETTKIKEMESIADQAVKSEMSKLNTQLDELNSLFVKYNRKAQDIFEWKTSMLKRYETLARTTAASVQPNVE
Briefly: affinity purification with mass spectrometry; Sf9 cells infected with vAcWT^Ac66Flag (MOI 5), collected at 48 h p.i.; IP with anti-Flag antibody, IgG as control; LC-MS/MS.

Results are given in words; binding and its absence hold for the method and conditions named. Binding seen in cells or lysates may run through a third protein. These calls come from enrichment with a bait or labelling near it, and not all partners need be listed. For some of these results: Where a sequence is shown, tags or fusion partners need not be part of it.

As to AcOrf-93 (AcMNPV), in assay [1], the binding result was “binds”. Regarding Copia-like envelope protein (AcMNPV), the binding result in assay [1] is “binds”. Regarding Early 49 Daa protein (AcMNPV), the binding result in assay [2] is “binds”. Turning to Orf-79 peptide (AcMNPV), the binding result in assay [1] is on record as “binds”.

Regarding Orf-120 (AcMNPV), the binding entry in assay [1] is “binds”. Turning to “V-ubi (ORF 3) (from UniProt P16709 1-77)”, the binding entry in assay [2] is on record as “binds”. For “Viral capsid-associated protein (AcMNPV)”, the binding result in assay [1] is “binds”.

As to host actin, the binding result in assay [2] is listed as “binds”. With host myosin, the binding result in assay [2] is recorded as “binds”.

On to pcna (AcMNPV), for which, in assay [1], the binding entry is recorded as “binds”.
